Experimental data reported in the supplement of paper PMC8728848.
Some of the results follow.

Key:
Experiment in all cases: glycan array binding signal (z-score within array); higher = stronger binding
Details in all cases: glycan notation: IUPAC condensed, linker removed
[1] = target: Neu5Ac(a2-6)GlcNAc(b1-4)GlcNAc
How it was run: (§1)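 Arrays were curated from the Consortium for Functional Glycomics database, 3228 in total, and kept only where the protein sequence was available. Binding is expressed as a within-array Z-score. This score was averaged across arrays of the same protein sequence at different concentrations or buffers and across linkers, and negative values can be read as non-binding.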

[2] = target: Neu5Ac(a2-6)GlcNAc(b1-4)GlcNAc(b1-4)GlcNAc
How it was run: as §1

[3] = target: Neu5Ac(a2-8)Neu5Ac
How it was run: as §1

[4] = target: Neu5Ac(a2-8)Neu5Ac(a2-3)Gal(b1-3)GalNAc(b1-4)[Neu5Ac(a2-3)]Gal(b1-4)Glc
How it was run: as §1

[5] = target: Neu5Ac(a2-8)Neu5Ac(a2-3)Gal(b1-3)GalNAc(b1-4)[Neu5Ac(a2-8)Neu5Ac(a2-3)]Gal(b1-4)Glc
How it was run: as §1

[6] = target: Neu5Ac(a2-8)Neu5Ac(a2-3)Gal(b1-4)Glc
How it was run: as §1

[7] = target: Neu5Ac(a2-8)Neu5Ac(a2-3)Gal(b1-4)GlcNAc
How it was run: as §1

[8] = target: Neu5Ac(a2-8)Neu5Ac(a2-3)[Gal(b1-3)GalNAc(b1-4)]Gal(b1-4)Glc
How it was run: as §1

[9] = target: Neu5Ac(a2-8)Neu5Ac(a2-3)[GalNAc(b1-4)]Gal(b1-4)Glc
How it was run: as §1

[10] = target: Neu5Ac(a2-8)Neu5Ac(a2-8)Neu5Ac
How it was run: as §1

[11] = target: Neu5Ac(a2-8)Neu5Ac(a2-8)Neu5Ac(a2-3)Gal(b1-4)Glc
How it was run: as §1

[12] = target: Neu5Ac(a2-8)Neu5Ac(a2-8)Neu5Ac(a2-3)[Gal(b1-3)GalNAc(b1-4)]Gal(b1-4)Glc
How it was run: as §1

[13] = target: Neu5Ac(a2-8)Neu5Ac(a2-8)Neu5Ac(a2-3)[GalNAc(b1-4)]Gal(b1-4)Glc
How it was run: as §1

[14] = target: Neu5Ac(a2-8)Neu5Ac(a2-8)Neu5Ac(a2-8)Neu5Ac(a2-3)[GalNAc(b1-4)]Gal(b1-4)Glc
How it was run: as §1

[15] = target: Neu5Ac(a2-8)Neu5Gc(a2-3)Gal(b1-4)GlcNAc
How it was run: as §1

[16] = target: Neu5Ac(b2-6)Gal(b1-4)GlcNAc
How it was run: as §1

[17] = target: Neu5Ac(b2-6)GalNAc
How it was run: as §1

[18] = target: Neu5Ac9Ac(a2-3)Gal(b1-3)GlcNAc
How it was run: as §1

[19] = target: Neu5Ac9Ac(a2-3)Gal(b1-4)GlcNAc
How it was run: as §1

[20] = target: Neu5Ac9Ac(a2-6)Gal(b1-4)GlcNAc
How it was run: as §1

[21] = target: Neu5Gc(a2-3)Gal(b1-3)GlcNAc
How it was run: as §1

[22] = target: Neu5Gc(a2-3)Gal(b1-3)[Fuc(a1-4)]GlcNAc
How it was run: as §1

[23] = target: Neu5Gc(a2-3)Gal(b1-4)Glc
How it was run: as §1

[24] = target: Neu5Gc(a2-3)Gal(b1-4)GlcNAc
How it was run: as §1

[25] = target: Neu5Gc(a2-3)Gal(b1-4)GlcNAc(b1-3)Gal(b1-4)GlcNAc(b1-2)Man(a1-3)[Neu5Gc(a2-3)Gal(b1-4)GlcNAc(b1-3)Gal(b1-4)GlcNAc(b1-2)Man(a1-6)]Man(b1-4)GlcNAc(b1-4)GlcNAc
How it was run: as §1

[26] = target: Neu5Gc(a2-3)Gal(b1-4)[Fuc(a1-3)]GlcNAc
How it was run: as §1

[27] = target: Neu5Gc(a2-6)Gal(b1-4)GlcNAc
How it was run: as §1

[28] = target: Neu5Gc(a2-6)GalNAc
How it was run: as §1

[29] = target: Neu5Gc(a2-8)Neu5Ac(a2-3)Gal(b1-4)GlcNAc
How it was run: as §1

[30] = target: Neu5Gc(a2-8)Neu5Gc(a2-3)Gal(b1-4)GlcNAc
How it was run: as §1

[31] = target: Neu5Gc(a2-8)Neu5Gc(a2-3)Gal(b1-4)GlcNAc(b1-3)Gal(b1-4)GlcNAc
How it was run: as §1

[32] = target: Neu5Gc(a2-8)Neu5Gc(a2-6)Gal(b1-4)GlcNAc
How it was run: as §1

[33] = target: Neu5Gc(b2-6)Gal(b1-4)GlcNAc
How it was run: as §1

B1: XTP3-B-MRH1 (Homo sapiens), Q96DZ1 (protein)
chain: LLEPLFKQSSCSYRIESYWTYEVCHGKHIRQYHEEKETGQKINIHEYYLGNMLAKNLLFEKEREAEEKEKSNEIPTKNIEGQMTPYYPVGMGNGTPCSLKQNRPRSSTVMYICHPESKHEILSVAEVTTCEYEVVILTPLLCSHPKYRFRA
[1]
  glycan array binding signal (z-score): -0.758
[2]
  glycan array binding signal (z-score): -1.64
[3]
  glycan array binding signal (z-score): -0.956
[4]
  glycan array binding signal (z-score): -1.01
[5]
  glycan array binding signal (z-score): 0.938
[6]
  glycan array binding signal (z-score): -0.144
[7]
  glycan array binding signal (z-score): 0.568
[8]
  glycan array binding signal (z-score): 2.49
[9]
  glycan array binding signal (z-score): 0.364
[10]
  glycan array binding signal (z-score): 0.151
[11]
  glycan array binding signal (z-score): -1.44
[12]
  glycan array binding signal (z-score): 0.01
[13]
  glycan array binding signal (z-score): 0.616
[14]
  glycan array binding signal (z-score): 1.37
[15]
  glycan array binding signal (z-score): -0.348
[16]
  glycan array binding signal (z-score): -1.35
[17]
  glycan array binding signal (z-score): -0.212
[18]
  glycan array binding signal (z-score): 0.769
[19]
  glycan array binding signal (z-score): 1.54
[20]
  glycan array binding signal (z-score): -0.172
[21]
  glycan array binding signal (z-score): -0.359
[22]
  glycan array binding signal (z-score): 0.922
[23]
  glycan array binding signal (z-score): -1
[24]
  glycan array binding signal (z-score): 0.292
[25]
  glycan array binding signal (z-score): 0.593
[26]
  glycan array binding signal (z-score): -0.253
[27]
  glycan array binding signal (z-score): -1.46
[28]
  glycan array binding signal (z-score): -1.51
[29]
  glycan array binding signal (z-score): 1.12
[30]
  glycan array binding signal (z-score): 0.701
[31]
  glycan array binding signal (z-score): 0.59
[32]
  glycan array binding signal (z-score): -1.21
[33]
  glycan array binding signal (z-score): 0.365
